Data taken from PMC12185749.
Results are given in words; binding and its absence hold for the method and conditions named. In cells and extracts the contact can be indirect. Here binding means that the protein was enriched with, or labelled near, the bait; the list need not be complete. Tags and fused reporters may be left off the sequences shown.

Target: T1, CLPTM1L-HA (UniProt Q96KA5)
T1 sequence: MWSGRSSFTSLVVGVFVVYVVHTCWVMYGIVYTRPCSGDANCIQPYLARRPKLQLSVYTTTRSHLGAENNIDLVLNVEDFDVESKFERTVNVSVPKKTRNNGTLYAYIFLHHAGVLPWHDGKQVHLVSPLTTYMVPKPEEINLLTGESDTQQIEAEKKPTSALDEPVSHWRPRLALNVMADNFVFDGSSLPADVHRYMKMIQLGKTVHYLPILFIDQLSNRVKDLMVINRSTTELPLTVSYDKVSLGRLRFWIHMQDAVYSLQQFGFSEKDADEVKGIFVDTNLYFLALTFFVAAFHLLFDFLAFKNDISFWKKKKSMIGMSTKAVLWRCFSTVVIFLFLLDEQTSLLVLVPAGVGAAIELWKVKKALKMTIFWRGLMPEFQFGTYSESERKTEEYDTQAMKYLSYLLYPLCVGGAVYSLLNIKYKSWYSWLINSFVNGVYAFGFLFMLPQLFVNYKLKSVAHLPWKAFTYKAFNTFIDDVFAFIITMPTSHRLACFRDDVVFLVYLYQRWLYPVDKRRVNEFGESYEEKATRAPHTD
Assay: affinity purification with mass spectrometry; proteins from S26 cells expressing CLPTM1L-HA or control vector incubated with Protein A/G magnetic beads conjugated with anti-HA antibody; SDS-PAGE, silver staining, the indicated band to mass spectrometry

B1: ERLIN2 (protein, UniProt O94905 1-339)
chain: MAQLGAVVAVASSFFCASLFSAVHKIEEGHIGVYYRGGALLTSTSGPGFHLMLPFITSYKSVQTTLQTDEVKNVPCGTSGGVMIYFDRIEVVNFLVPNAVYDIVKNYTADYDKALIFNKIHHELNQFCSVHTLQEVYIELFDQIDENLKLALQQDLTSMAPGLVIQAVRVTKPNIPEAIRRNYELMESEKTKLLIAAQKQKVVEKEAETERKKALIEAEKVAQVAEITYGQKVMEKETEKKISEIEDAAFLAREKAKADAECYTAMKIAEANKLKLTPEYLQLMKYKAIASNSKIYFGKDIPNMFMDSAGSVSKQFEGLADKLSFGLEDEPLETATKEN
Q: For B1, which binding is on record?
A: The binding was “binds”.
